The target in the experiment is glutathione S-transferase (Schistosoma japonicum GST tag binding GSH beads). The experiment is described as follows: GST–glutathione bead interaction interference profiling – biochemical, multiplex beads, flow cytometry, profiling panel (AID 1769).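 Further: target is a GST and green fluorescent protein fusion captured on glutathione beads.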 The settings on record: flow cytometry fluorescence. (In general: In flow cytometry, cells or beads pass a laser one at a time.)

Turning to `N#Cc1c(-c2cccc(Br)c2)cc(-c2ccco2)[nH]c1=O`, the EC50 (in general, the concentration giving half of the maximal effect) was 49.2 µM.

Values taken from PubChem BioAssay AID1769 (NMMLSC, 2009).
